Test results taken from US20150094260A1, “BUFFERED OPHTHALMIC COMPOSITIONS AND METHODS OF USE THEREOF” (ARAVA BIO-TECH LTD., priority 2010, published 2015).
Some entries share one result that the patent states for a list of compounds.

Tested on: rabbit eyes subject to mechanical corneal wounding
Experiment: Mechanical corneal wounding in rabbit eyes, corneal erosion area by fluorescein staining
Type: in vivo
Conditions: none of the control eyes reached 50% closure; FIG. 10
Method: Mechanical Corneal Ulcer Formation: A 6 mm corneal trephine (Grieshaber, Switzerland), preset for 50 micrometer in depth and a miniblade were used under a surgical microscope, to perform a uniform central corneal epithelial erosions, 6 mm in diameter and 50 micrometer in depth.
Rabbits were subjected to mechanical corneal wounding following the protocol discussed above. Eyes were treated by two daily ocular instillations of treatments during 3 successive days. Fluorescein staining was used to measure the corneal erosion area at twelve hours intervals starting 24 hrs post wounding and up to 72 hrs.
In addition to the time to heal parameter which is routinely assessed in wound healing studies, several publications established the importance of a new parameter, 50% reduction in wound size to serve as a robust predictor of complete wound closure. […] Results were therefore analyzed as percentage of eyes with 50% closure or higher at 24 hr post wounding (FIG. 2).
Rabbits were subjected to mechanical corneal wounding as discussed in Example 1. Eyes were treated by two daily ocular instillations of treatments during 3 successive days. Fluorescein staining was used to measure the corneal erosion area at six hours intervals.
Additional experiments were conducted using varying dosages of active agent. Rabbits were subjected to mechanical corneal wounding as described above. […]

Substance: MPDY-1: N-myristoylated peptide defined by SEQ ID NO: 2 (Phe-Ala-Arg-Lys-Gly-Ala-Leu-Arg-Gln), PKC-α inhibitor; tested in BSS (FARKGALRQ; N-terminal myristoyl)
- percentage of eyes with 50% closure or higher at 24 hr post wounding: ≥ 60%
